According to US4530920A (Syntex (U.S.A.) Inc., priority 1983, dated 1985):

Key:
[1] = general procedure: Boc solid-phase peptide synthesis; benzhydrylamino-polystyrene-divinylbenzene resin; DCC/1-hydroxybenzotriazole; details: whole synthesis, scale 0.8 mmol, HF salt
[2] = general procedure: Boc solid-phase peptide synthesis; Boc-Pro-O-Resin (chloromethyl-polystyrene/1% divinylbenzene); DCC/1-hydroxybenzotriazole; details: whole synthesis, scale 4.0 mmol, acetic acid addition salt

Substance: pGlu-His-Trp-Ser-Tyr-D-Deh-Leu-Arg-Pro-GlyNH2
- crude mass [1]: 0.8 g

Substance: (pyro)-Glu-His-Trp-Ser-Tyr-D-Deh-Leu-Arg-Pro-NH-CH2 CH3
- crude mass [2]: 0.53 g
